This is one part of the list.
How the values were obtained:
Assay in all cases: log2 fold change, soluble protein after heating vs DMSO (PISA); higher = thermal stabilisation; K562 cells, 10 uM, 30 min; active = over 0.2 and 3.5 SD of the protein, either way, in both replicates (recomputed)
[1] = compound: CC[C@@H]1C(=O)N(C)c2cnc(Nc3ccc(C(=O)NC4CCN(C)CC4)cc3OC)nc2N1C1CCCC1
In short: (§1)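 Soluble protein was defined as the supernatant after 21,000xg for 90 min. It came from K562 cells at 2×10^6 cells/mL given 10 μM compound for 30 min, heated in aliquots for 3 min across 48°C-58°C, pooled, and extracted in PBS with 0.5% NP-40 at 4°C, and was quantified by TMTpro 16plex LC-MS/MS with equalised channel sums. Thermal stability against control samples, from duplicates, is reported as log2 fold change.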

Chains of the proteins cited; added tags and fusions are not shown. Lines headed by an entry give the natural chain unless they say otherwise; changes in a name come on top.
UniProt Q9P031: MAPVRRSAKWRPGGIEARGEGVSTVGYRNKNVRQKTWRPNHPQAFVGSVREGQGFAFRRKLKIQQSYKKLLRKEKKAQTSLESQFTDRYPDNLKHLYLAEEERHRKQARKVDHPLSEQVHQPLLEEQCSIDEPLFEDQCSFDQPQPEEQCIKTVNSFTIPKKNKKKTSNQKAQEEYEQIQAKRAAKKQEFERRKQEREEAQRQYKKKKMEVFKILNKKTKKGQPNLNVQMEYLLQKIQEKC
UniProt Q8N163, whole entry, looked up: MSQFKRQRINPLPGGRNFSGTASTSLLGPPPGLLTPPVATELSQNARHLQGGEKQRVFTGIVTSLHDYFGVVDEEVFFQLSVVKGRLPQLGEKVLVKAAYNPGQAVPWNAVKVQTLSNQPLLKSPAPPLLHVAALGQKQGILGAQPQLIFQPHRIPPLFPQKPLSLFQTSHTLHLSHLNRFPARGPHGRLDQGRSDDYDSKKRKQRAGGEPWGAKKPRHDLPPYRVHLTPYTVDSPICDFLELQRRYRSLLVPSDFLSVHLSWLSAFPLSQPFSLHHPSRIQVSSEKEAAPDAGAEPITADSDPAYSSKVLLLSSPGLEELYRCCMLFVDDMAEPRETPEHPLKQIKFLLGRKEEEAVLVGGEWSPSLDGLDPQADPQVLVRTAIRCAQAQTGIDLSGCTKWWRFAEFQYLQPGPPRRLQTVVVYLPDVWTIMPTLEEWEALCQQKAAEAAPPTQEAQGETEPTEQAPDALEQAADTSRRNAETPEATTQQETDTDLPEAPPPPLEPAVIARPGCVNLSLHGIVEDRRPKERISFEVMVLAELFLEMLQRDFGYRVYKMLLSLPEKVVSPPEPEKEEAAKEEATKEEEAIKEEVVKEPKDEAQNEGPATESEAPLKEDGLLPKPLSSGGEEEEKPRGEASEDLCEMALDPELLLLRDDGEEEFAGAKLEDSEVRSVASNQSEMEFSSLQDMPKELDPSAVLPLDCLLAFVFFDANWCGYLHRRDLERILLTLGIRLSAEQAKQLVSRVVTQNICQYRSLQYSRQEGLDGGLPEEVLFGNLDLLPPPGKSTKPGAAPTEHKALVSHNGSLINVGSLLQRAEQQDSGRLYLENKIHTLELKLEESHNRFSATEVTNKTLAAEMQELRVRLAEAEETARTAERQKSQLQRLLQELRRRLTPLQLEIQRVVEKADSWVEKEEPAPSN
UniProt Q96F63: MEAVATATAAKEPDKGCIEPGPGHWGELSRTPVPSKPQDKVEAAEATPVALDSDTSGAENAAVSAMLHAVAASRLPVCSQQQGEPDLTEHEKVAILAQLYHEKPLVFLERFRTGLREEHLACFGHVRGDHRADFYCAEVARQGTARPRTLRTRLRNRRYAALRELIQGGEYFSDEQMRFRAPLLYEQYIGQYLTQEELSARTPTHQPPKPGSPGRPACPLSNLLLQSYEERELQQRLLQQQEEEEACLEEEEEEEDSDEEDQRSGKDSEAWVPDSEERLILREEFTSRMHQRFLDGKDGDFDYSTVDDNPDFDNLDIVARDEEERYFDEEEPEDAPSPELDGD
UniProt P08174: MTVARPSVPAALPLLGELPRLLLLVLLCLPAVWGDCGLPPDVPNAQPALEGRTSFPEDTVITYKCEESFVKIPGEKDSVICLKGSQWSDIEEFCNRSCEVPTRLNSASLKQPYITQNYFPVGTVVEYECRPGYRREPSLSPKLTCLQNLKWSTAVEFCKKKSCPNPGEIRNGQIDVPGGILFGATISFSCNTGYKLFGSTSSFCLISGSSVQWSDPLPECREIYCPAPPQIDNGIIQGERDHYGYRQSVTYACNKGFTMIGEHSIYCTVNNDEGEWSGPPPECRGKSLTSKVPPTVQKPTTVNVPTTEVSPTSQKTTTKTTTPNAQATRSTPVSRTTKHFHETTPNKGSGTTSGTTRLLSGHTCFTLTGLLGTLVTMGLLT
UniProt P42575: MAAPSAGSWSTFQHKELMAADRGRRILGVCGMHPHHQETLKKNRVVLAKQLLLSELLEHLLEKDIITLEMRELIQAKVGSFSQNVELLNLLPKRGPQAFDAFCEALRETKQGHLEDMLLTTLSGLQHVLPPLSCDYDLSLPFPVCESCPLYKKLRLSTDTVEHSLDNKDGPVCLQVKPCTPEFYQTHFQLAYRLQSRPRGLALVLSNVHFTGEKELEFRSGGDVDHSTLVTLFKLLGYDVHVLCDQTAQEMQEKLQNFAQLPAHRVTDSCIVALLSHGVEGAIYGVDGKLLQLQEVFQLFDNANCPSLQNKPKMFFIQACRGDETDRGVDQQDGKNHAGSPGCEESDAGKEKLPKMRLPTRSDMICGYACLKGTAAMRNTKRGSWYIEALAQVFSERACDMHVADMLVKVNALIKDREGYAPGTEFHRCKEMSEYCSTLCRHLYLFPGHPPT
UniProt A6NHX0: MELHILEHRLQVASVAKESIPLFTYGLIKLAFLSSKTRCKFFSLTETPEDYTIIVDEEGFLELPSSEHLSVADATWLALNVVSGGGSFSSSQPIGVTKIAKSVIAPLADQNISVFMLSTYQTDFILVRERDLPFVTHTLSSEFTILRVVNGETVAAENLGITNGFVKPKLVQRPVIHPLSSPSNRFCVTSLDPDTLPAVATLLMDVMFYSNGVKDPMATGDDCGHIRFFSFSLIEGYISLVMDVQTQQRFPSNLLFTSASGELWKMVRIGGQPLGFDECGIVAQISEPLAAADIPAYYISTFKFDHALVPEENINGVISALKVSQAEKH
UniProt P51946: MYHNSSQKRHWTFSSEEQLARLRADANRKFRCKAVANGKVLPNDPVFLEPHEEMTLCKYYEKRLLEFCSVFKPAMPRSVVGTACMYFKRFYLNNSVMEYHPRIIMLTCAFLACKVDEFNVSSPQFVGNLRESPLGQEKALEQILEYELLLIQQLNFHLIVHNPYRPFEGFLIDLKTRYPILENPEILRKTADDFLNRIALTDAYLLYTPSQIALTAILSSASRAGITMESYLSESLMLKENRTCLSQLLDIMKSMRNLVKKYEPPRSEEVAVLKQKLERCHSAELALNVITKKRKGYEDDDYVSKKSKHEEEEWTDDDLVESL
UniProt Q9ULG6: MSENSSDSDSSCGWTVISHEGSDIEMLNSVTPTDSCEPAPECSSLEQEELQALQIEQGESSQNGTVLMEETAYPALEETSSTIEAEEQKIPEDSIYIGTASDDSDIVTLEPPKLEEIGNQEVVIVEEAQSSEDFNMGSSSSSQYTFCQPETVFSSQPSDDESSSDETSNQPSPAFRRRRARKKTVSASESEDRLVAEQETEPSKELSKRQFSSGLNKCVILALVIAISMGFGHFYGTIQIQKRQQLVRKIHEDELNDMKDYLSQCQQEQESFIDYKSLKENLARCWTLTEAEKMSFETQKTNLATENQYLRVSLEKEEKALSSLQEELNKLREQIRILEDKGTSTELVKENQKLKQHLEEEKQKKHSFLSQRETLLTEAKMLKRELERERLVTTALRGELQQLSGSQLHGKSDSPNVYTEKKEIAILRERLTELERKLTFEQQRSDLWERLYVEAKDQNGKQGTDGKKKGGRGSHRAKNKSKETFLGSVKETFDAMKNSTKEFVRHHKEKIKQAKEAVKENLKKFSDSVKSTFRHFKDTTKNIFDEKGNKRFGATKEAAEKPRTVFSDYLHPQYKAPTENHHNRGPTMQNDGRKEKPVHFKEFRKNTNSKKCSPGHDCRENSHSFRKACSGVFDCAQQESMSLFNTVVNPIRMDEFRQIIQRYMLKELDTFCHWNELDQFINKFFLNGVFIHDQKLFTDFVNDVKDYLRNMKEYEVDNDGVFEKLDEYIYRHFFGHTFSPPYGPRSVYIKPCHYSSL
UniProt P42574: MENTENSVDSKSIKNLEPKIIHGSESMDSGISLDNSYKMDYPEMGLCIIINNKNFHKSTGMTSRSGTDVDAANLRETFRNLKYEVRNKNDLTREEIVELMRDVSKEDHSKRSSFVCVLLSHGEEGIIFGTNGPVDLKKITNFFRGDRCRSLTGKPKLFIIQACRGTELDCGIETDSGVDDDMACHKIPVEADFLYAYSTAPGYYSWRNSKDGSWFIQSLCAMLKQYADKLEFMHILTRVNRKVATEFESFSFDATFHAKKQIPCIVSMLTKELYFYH
UniProt Q7L3B6: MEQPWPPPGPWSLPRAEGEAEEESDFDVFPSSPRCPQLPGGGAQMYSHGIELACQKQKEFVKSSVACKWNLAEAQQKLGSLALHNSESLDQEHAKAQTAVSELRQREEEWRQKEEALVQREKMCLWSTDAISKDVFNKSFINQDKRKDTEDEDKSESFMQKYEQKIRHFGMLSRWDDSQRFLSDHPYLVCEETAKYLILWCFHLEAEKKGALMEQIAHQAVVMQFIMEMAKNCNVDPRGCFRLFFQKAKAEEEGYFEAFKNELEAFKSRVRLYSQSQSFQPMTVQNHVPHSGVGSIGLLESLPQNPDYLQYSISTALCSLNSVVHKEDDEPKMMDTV
UniProt P16152: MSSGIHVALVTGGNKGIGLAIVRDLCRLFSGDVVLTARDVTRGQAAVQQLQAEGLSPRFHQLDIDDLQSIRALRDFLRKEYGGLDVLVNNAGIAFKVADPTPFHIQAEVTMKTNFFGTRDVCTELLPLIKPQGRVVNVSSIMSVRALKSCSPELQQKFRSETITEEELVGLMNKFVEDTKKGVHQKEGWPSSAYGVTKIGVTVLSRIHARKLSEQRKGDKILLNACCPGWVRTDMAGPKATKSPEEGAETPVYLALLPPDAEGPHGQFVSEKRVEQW
UniProt Q8IX12: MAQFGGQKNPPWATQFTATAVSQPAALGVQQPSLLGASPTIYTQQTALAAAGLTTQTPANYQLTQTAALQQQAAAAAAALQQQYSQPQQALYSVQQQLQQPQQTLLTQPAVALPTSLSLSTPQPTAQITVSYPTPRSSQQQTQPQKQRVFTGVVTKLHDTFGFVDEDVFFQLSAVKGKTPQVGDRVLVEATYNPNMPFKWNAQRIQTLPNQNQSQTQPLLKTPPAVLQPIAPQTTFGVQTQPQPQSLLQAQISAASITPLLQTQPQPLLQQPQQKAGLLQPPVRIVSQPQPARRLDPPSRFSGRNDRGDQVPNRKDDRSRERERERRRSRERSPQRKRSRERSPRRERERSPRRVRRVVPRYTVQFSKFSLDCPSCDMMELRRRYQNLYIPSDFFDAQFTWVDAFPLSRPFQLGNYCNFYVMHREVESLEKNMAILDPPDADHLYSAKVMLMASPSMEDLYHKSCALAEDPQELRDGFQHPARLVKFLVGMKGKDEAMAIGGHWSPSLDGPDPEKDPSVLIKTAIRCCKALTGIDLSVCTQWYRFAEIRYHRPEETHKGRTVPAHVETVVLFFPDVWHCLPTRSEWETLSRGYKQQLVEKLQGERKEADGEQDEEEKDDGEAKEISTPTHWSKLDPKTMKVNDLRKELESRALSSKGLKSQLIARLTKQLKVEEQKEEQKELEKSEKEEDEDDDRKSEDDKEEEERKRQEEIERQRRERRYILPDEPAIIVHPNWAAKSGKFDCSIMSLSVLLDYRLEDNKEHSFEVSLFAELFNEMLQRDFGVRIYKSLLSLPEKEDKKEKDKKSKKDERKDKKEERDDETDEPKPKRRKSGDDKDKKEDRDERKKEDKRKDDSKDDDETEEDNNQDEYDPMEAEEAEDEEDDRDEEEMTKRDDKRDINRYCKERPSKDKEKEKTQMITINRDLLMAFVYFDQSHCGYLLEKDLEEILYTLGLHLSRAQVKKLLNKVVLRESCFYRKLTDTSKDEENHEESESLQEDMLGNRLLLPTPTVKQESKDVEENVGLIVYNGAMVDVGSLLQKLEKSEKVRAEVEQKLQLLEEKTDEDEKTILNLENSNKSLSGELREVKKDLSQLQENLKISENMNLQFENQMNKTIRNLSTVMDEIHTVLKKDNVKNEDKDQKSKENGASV
UniProt Q15834: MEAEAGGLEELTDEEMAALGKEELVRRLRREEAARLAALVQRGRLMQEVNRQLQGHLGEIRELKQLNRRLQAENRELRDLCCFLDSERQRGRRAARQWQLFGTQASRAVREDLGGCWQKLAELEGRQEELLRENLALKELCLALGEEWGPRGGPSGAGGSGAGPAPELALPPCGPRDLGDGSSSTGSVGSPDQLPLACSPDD
UniProt Q14790: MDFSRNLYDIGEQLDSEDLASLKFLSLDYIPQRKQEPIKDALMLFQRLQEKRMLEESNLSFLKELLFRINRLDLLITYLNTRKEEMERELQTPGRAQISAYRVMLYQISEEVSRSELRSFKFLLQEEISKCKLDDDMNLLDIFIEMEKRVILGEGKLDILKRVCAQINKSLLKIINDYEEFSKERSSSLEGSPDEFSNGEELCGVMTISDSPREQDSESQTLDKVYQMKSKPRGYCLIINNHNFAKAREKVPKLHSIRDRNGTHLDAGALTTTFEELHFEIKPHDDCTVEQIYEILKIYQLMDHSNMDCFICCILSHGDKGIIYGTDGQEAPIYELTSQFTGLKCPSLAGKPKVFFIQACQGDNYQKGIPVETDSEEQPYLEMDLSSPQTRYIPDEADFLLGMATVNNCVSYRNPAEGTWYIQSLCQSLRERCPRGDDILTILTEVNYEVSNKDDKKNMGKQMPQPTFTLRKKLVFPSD

volasertib = compound: CC[C@@H]1C(=O)N(C)c2cnc(Nc3ccc(C(=O)N[C@H]4CC[C@H](N5CCN(CC6CC6)CC5)CC4)cc3OC)nc2N1C(C)C [volasertib]
In short: as §1

[2] = compound: CC[C@H](C)N1C=C(C2=C(C=C(C=C21)C3=CN=C(C=C3)N4CCNCC4)C(=O)NCC5=C(C=C(NC5=O)C)C)C
In short: as §1

epoxomicin = compound: CC[C@H](C)[C@@H](C(=O)N[C@@H]([C@@H](C)O)C(=O)N[C@@H](CC(C)C)C(=O)[C@]1(CO1)C)NC(=O)[C@H]([C@@H](C)CC)N(C)C(=O)C [epoxomicin]
In short: as §1

[3] = compound: CCn1cc(-c2ccnc3[nH]c(-c4cccc(CN(C)C)c4)cc23)c(-c2ccc(NC(=O)N(C)C)cc2)n1
In short: as §1

[4] = compound: CN(C)CC(=O)Nc1ccc2[nH]c(=O)c3ccccc3c2c1
In short: as §1

[5] = compound: CN1C2=C(C3=C1C(=O)N(N=C3)CC4=CC(=CC=C4)N)SC(=C2)S(=O)C
In short: as §1

[6] = compound: CN1CCC(CNc2ccc3ncc(-c4cccc(OC(F)(F)F)c4)n3n2)CC1
In short: as §1

saracatinib = compound: CN1CCN(CCOc2cc(OC3CCOCC3)c3c(Nc4c(Cl)ccc5c4OCO5)ncnc3c2)CC1 [saracatinib]
In short: as §1

sotrastaurin = compound: CN1CCN(c2nc(C3=C(c4c[nH]c5ccccc45)C(=O)NC3=O)c3ccccc3n2)CC1 [sotrastaurin]
In short: as §1

Tubastatin A = compound: CN1CCc2c(c3ccccc3n2Cc2ccc(C(=O)NO)cc2)C1 [Tubastatin A]
In short: as §1

[7] = compound: CNC(=O)C1=CC=CC=C1NC2=NC(=NC=C2Cl)NC3=C(C=C(C=C3)N4CCOCC4)OC
In short: as §1

defactinib = compound: CNC(=O)c1ccc(Nc2ncc(C(F)(F)F)c(NCc3nccnc3N(C)S(C)(=O)=O)n2)cc1 [defactinib]
In short: as §1

rucaparib = compound: CNCc1ccc(-c2[nH]c3cc(F)cc4c3c2CCNC4=O)cc1 [rucaparib]
In short: as §1

[8] = compound: CNc1nc(-c2ccc3c(N)n[nH]c3c2)cc(N2C[C@@H](C(=O)NC3CCCCC3)CC[C@H]2C)n1
In short: as §1

encorafenib = compound: COC(=O)N[C@@H](C)CNc1nccc(-c2cn(C(C)C)nc2-c2cc(Cl)cc(NS(C)(=O)=O)c2F)n1 [encorafenib]
In short: as §1

[9] = compound: COC(=O)[C@H](CCSC)NC(=O)C1=C(C=C(C=C1)NC[C@H](CS)N)C2=CC=CC=C2
In short: as §1

[10] = compound: CCn1c(C(=O)N(C2CC2)C2CC2)cc2c3c(ncn3C)c(Nc3cc(C)n(C)n3)nc21
In short: as §1

rosiglitazone = compound: CN(CCOC1=CC=C(C=C1)C[C@H]2C(=O)NC(=O)S2)C3=CC=CC=N3 (racemic) [rosiglitazone]
In short: as §1

alvocidib = compound: CN1CC[C@H](c2c(O)cc(O)c3c(=O)cc(-c4ccccc4Cl)oc23)[C@H](O)C1 [alvocidib]
In short: as §1

Row | Target | log2 fold change [1] | log2 fold change (volasertib) | log2 fold change [2] | log2 fold change (epoxomicin) | log2 fold change [3] | log2 fold change [4] | log2 fold change [5] | log2 fold change [6] | log2 fold change (saracatinib) | log2 fold change (sotrastaurin) | log2 fold change (Tubastatin A) | log2 fold change [7] | log2 fold change (defactinib) | log2 fold change (rucaparib) | log2 fold change [8] | log2 fold change (encorafenib) | log2 fold change [9] | log2 fold change [10] | log2 fold change (rosiglitazone) | log2 fold change (alvocidib)
1 | CCDC59 (UniProt Q9P031) | inactive: 0.065 | inactive: 0.186 | inactive: -0.006 | inactive: -0.067 | inactive: 0.088 | inactive: -0.08 | inactive: 0.394 | inactive: 0.176 | inactive: -0.222 | inactive: 0.023 | inactive: 0.127 | inactive: 0.007 | inactive: 0.309 | inactive: 0.029 | inactive: 0.05 | inactive: 0.026 | inactive: -0.015 |  |  | 
2 | CDC123 (UniProt O75794) | inactive: 0.06 | inactive: -0.002 | inactive: 0.07 | inactive: 0.137 | inactive: -0.021 | inactive: 0.015 | inactive: -0.009 | inactive: -0.1 | inactive: -0.039 | inactive: 0.073 | inactive: 0.075 | inactive: -0.043 | inactive: 0.008 | inactive: -0.017 | inactive: -0.041 | inactive: 0.052 | inactive: -0.032 |  |  | 
3 | CD63 (UniProt P08962) | inactive: -0.013 | inactive: 0.048 | inactive: -0.013 | inactive: -0.019 | inactive: 0.06 | inactive: 0.01 | inactive: 0.012 | inactive: 0.018 | inactive: 0.021 | inactive: 0.017 | inactive: -0.005 | inactive: 0 | inactive: -0.006 | inactive: -0.018 | inactive: -0.01 | inactive: 0.049 | inactive: 0.015 |  |  | 
4 | CCAR2 isoform 2 (UniProt Q8N163) | inactive: -0.08 | active: -0.343 | inactive: 0.031 | inactive: -0.018 | inactive: -0.025 | inactive: 0.044 | inactive: 0.003 | inactive: -0.145 | inactive: -0.102 | inactive: -0.231 | inactive: 0.122 | inactive: -0.083 | active: -0.42 | inactive: -0.106 | inactive: 0.031 | inactive: -0.011 | inactive: 0 |  |  | 
5 | CCDC97 (UniProt Q96F63) | inactive: -0.096 | inactive: -0.32 | inactive: 0.094 | inactive: 0.06 |  | inactive: 0.078 | inactive: 0.054 |  | inactive: 0.144 | inactive: -0.166 | inactive: -0.017 | inactive: -0.065 | inactive: -0.103 | inactive: 0.062 | inactive: -0.141 | inactive: -0.014 | inactive: -0.048 | inactive: 0.031 | inactive: -0.099 | inactive: -0.281
6 | CD55 isoform 7 (UniProt P08174) | inactive: 0.172 | inactive: 0.096 | inactive: -0.031 | inactive: 0.086 | inactive: -0.006 | inactive: -0.042 | inactive: -0.005 | active: 0.228 | inactive: 0.06 | inactive: -0.01 | inactive: 0.033 | inactive: 0.012 | inactive: 0.007 | inactive: 0.022 | inactive: 0.028 | inactive: -0.016 | inactive: 0.039 |  |  | 
7 | CASP2 (UniProt P42575) | inactive: 0.058 | inactive: 0.112 | inactive: 0.078 | inactive: 0.024 | inactive: -0.153 | inactive: 0.031 | inactive: 0.008 | inactive: -0.08 | inactive: -0.1 | inactive: -0.048 | inactive: 0.082 | inactive: 0.037 | inactive: -0.08 | inactive: -0.006 | inactive: 0.053 | inactive: 0.133 | inactive: -0.005 |  |  | 
8 | CASTOR2 (UniProt A6NHX0) | inactive: 0.025 | inactive: 0.254 | inactive: -0.042 | inactive: 0.061 | inactive: 0.123 | inactive: -0.035 | inactive: -0.022 | inactive: 0.066 | inactive: 0.042 | inactive: 0.039 | inactive: 0.036 | inactive: -0.082 | inactive: -0.092 | inactive: -0.048 | inactive: 0.032 | inactive: 0.04 | inactive: 0 |  |  | 
9 | CCNH (UniProt P51946) | inactive: -0.034 | inactive: -0.028 | inactive: 0.021 | inactive: -0.024 | inactive: 0.046 | inactive: -0.019 | inactive: -0.069 | inactive: 0.005 | inactive: 0.094 | inactive: -0.019 | inactive: -0.001 | inactive: -0.037 | inactive: -0.037 | inactive: 0.036 | inactive: -0.044 | inactive: -0.031 | inactive: 0.033 |  |  | 
10 | CAVIN1 (UniProt Q6NZI2) | inactive: 0.072 | inactive: 0.182 | inactive: -0.007 | inactive: -0.125 | inactive: 0.085 | inactive: -0.06 | inactive: 0.124 | inactive: -0.074 | inactive: -0.065 | inactive: -0.053 | inactive: 0.159 | inactive: -0.015 | inactive: 0.226 | inactive: 0.098 | inactive: 0.119 | inactive: 0.122 | inactive: 0.034 |  |  | 
11 | CCPG1 isoform 5 (UniProt Q9ULG6) | inactive: 0.016 | inactive: -0.041 | inactive: 0.01 | inactive: 0.048 | inactive: 0.021 | inactive: -0.049 | inactive: 0.142 | inactive: 0.103 | inactive: -0.124 | inactive: -0.07 | inactive: 0.193 | inactive: -0.045 | inactive: 0.1 | inactive: 0.042 | inactive: -0.049 | inactive: 0.103 | inactive: -0.001 | inactive: 0.008 | inactive: -0.021 | inactive: 0.109
12 | CASP3 (UniProt P42574) | inactive: 0.012 | inactive: 0.014 | inactive: -0.033 | active: 0.273 | inactive: 0.018 | inactive: -0.021 | inactive: -0.097 | inactive: 0.019 | inactive: 0.107 | inactive: 0.048 | inactive: 0.066 | inactive: -0.024 | inactive: -0.002 | inactive: -0.062 | inactive: 0.001 | inactive: -0.014 | inactive: -0.004 |  |  | 
13 | CDC37L1 (UniProt Q7L3B6) | inactive: -0.14 | inactive: -0.199 | inactive: 0.059 | inactive: 0.029 | inactive: 0.091 | inactive: -0.054 | inactive: 0.001 | inactive: -0.048 | inactive: -0.003 | inactive: 0.021 | active: -0.308 | inactive: 0.002 | inactive: 0.059 | inactive: -0.058 | inactive: -0.013 | inactive: 0.005 | inactive: 0.018 |  |  | 
14 | CBR1 (UniProt P16152) | inactive: -0.001 | inactive: -0.041 | inactive: -0.017 | inactive: 0.06 | inactive: 0 | inactive: 0.005 | inactive: -0.077 | inactive: 0.077 | inactive: 0.02 | inactive: -0.005 | inactive: -0.059 | inactive: 0.011 | inactive: -0.041 | inactive: -0.01 | inactive: -0.003 | inactive: -0.024 | inactive: 0.004 |  |  | 
15 | CCAR1 (UniProt Q8IX12) | inactive: 0.079 | inactive: 0.149 | inactive: 0.063 | inactive: 0.008 | inactive: -0.219 | inactive: 0.018 | inactive: -0.039 | active: -0.319 | inactive: -0.038 | inactive: -0.027 | inactive: -0.001 | inactive: -0.039 | inactive: -0.021 | inactive: 0.026 | inactive: 0.086 | inactive: -0.005 | inactive: -0.033 |  |  | 
16 | CCDC85B (UniProt Q15834) | inactive: 0.175 | inactive: 0.119 |  |  | inactive: 0.09 | inactive: -0.012 | inactive: 0.132 | inactive: -0.05 | inactive: -0.106 | inactive: -0.327 | inactive: 0.021 | inactive: -0.182 | inactive: 0.009 | inactive: -0.103 | inactive: 0.056 | inactive: -0.066 | inactive: 0.016 | inactive: 0.172 | inactive: -0.139 | inactive: 0.015
17 | CASP8 isoform 9 (UniProt Q14790) | inactive: 0.025 | active: -0.489 | inactive: 0.065 | inactive: 0.052 | inactive: -0.019 | inactive: 0 | inactive: -0.026 | inactive: -0.082 | inactive: -0.032 | inactive: -0.019 | inactive: 0.115 | inactive: 0.053 | inactive: -0.1 | inactive: 0.011 | inactive: 0.04 | inactive: 0.044 | inactive: 0.037 |  |  | 

Shown tab-delimited: part of the list above.
Row	Target	log2 fold change [1]	log2 fold change (volasertib)	log2 fold change [2]	log2 fold change (epoxomicin)	log2 fold change [3]	log2 fold change [4]	log2 fold change [5]	log2 fold change [6]	log2 fold change (saracatinib)	log2 fold change (sotrastaurin)	log2 fold change (Tubastatin A)	log2 fold change [7]	log2 fold change (defactinib)	log2 fold change (rucaparib)	log2 fold change [8]	log2 fold change (encorafenib)	log2 fold change [9]	log2 fold change [10]	log2 fold change (rosiglitazone)	log2 fold change (alvocidib)
2	CDC123 (UniProt O75794)	inactive: 0.06	inactive: -0.002	inactive: 0.07	inactive: 0.137	inactive: -0.021	inactive: 0.015	inactive: -0.009	inactive: -0.1	inactive: -0.039	inactive: 0.073	inactive: 0.075	inactive: -0.043	inactive: 0.008	inactive: -0.017	inactive: -0.041	inactive: 0.052	inactive: -0.032			
3	CD63 (UniProt P08962)	inactive: -0.013	inactive: 0.048	inactive: -0.013	inactive: -0.019	inactive: 0.06	inactive: 0.01	inactive: 0.012	inactive: 0.018	inactive: 0.021	inactive: 0.017	inactive: -0.005	inactive: 0	inactive: -0.006	inactive: -0.018	inactive: -0.01	inactive: 0.049	inactive: 0.015			
4	CCAR2 isoform 2 (UniProt Q8N163)	inactive: -0.08	active: -0.343	inactive: 0.031	inactive: -0.018	inactive: -0.025	inactive: 0.044	inactive: 0.003	inactive: -0.145	inactive: -0.102	inactive: -0.231	inactive: 0.122	inactive: -0.083	active: -0.42	inactive: -0.106	inactive: 0.031	inactive: -0.011	inactive: 0			
5	CCDC97 (UniProt Q96F63)	inactive: -0.096	inactive: -0.32	inactive: 0.094	inactive: 0.06		inactive: 0.078	inactive: 0.054		inactive: 0.144	inactive: -0.166	inactive: -0.017	inactive: -0.065	inactive: -0.103	inactive: 0.062	inactive: -0.141	inactive: -0.014	inactive: -0.048	inactive: 0.031	inactive: -0.099	inactive: -0.281
6	CD55 isoform 7 (UniProt P08174)	inactive: 0.172	inactive: 0.096	inactive: -0.031	inactive: 0.086	inactive: -0.006	inactive: -0.042	inactive: -0.005	active: 0.228	inactive: 0.06	inactive: -0.01	inactive: 0.033	inactive: 0.012	inactive: 0.007	inactive: 0.022	inactive: 0.028	inactive: -0.016	inactive: 0.039			

Reference: the supplement of paper PMC10849652
